Test results: PubChem BioAssay AID445 (National Center for Advancing Translational Sciences (NCATS), 2006)
Some of the results follow. The main result of the screen is listed elsewhere. These columns were measured beside it and carry no call. The list favours compounds with an active or inconclusive main result. Words in brackets tell the shape of the fitted curve; partial curves, single points and poor fits give uncertain potencies.

Assay: IkB Signaling
Details: ABC-DLBCL IkBa-CBG/CBR dual luciferase ratio (green luciferase fused to IkBa over red control in OCI-Ly3 lymphoma cells), 4 h
Procedure, shortened: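 In this assay, an IκBα–CBG68 fusion accumulates when IKK-driven degradation is blocked; native CBR normalizes for cell number. OCI-Ly3 cells were treated 4 h with compound and doxycycline, then green and red light read after Chroma-Glo addition.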

[1] = measured here: control luc red channel unless noted

Question: With `COc1ccc(/C=C/C(=O)Nc2ccc3nc4c(c(Nc5ccccc5OC)c3c2)CCCC4)cc1` as the compound, how does the AC50 [1] read?
Answer: 3.16 µM [falling, full curve]

Question: With `CC(=O)N1c2c(cc(Br)cc2S(=O)(=O)N2CCN(c3cc(C)ccc3C)CC2)CC1C` (centres undefined) as the compound, how does the AC50 [1] read?
Answer: 10 µM [falling, partial curve]

Question: For `Cc1ccccc1CN1C(=O)c2ccccc2S(=O)c2ccc(C(=O)NC3CCC(C)CC3)cc21` (centres undefined), which AC50 [1] is on record?
Answer: 10 µM [falling, partial curve]

Question: Which AC50 [1] does the source give for `Cc1cc(Oc2ccccc2)nc2ccc(O)cc12` here?
Answer: 0.2 µM [rising, full curve, poor fit]

Question: With `COc1ccc(C2SCCN2S(=O)(=O)c2ccc(F)cc2)cc1OC` (centres undefined) as the compound, how does the AC50 [1] read?
Answer: 39.8 µM [falling, single point]

Question: With `CC(Oc1ccc(F)cc1)C(=O)N1CCC(c2nc3ccccc3s2)CC1` (centres undefined) as the compound, how does the AC50 [1] read?
Answer: 15.8 µM [falling, partial curve]

Question: With `Cc1cc(C)cc(NC(=O)C(Cc2ccccc2)NS(=O)(=O)c2ccc3c(c2)c(=O)n(C)c(=O)n3C)c1` (centres undefined) as the compound, how does the AC50 [1] read?
Answer: 20 µM [falling, partial curve]

Question: Which AC50 [1] does the source give for `COc1ccccc1N1CCN(C(=O)c2nc(SC)ncc2Cl)CC1` here?
Answer: 3.98 µM [rising, full curve]

Question: Which AC50 [1] does the source give for `CCCCC(=O)Nc1cccc(NC(=O)c2ccc3c(c2)OCO3)c1` here?
Answer: 15.8 µM [falling, partial curve]

Question: For `CCOc1ccc(N2CC(c3nc4ccccc4n3CCCOc3ccccc3)CC2=O)cc1` (centres undefined), which AC50 [1] is on record?
Answer: 25.1 µM [falling, partial curve]

Question: For `Cc1c(C(=O)NCC(c2ccc(Cl)cc2)N2CCOCC2)oc2ccccc12` (centres undefined), which AC50 [1] is on record?
Answer: 31.6 µM [falling, partial curve]

Question: With `CCCCOC(=O)c1ccc(NC(=O)c2cc3c(=O)n4cccc(C)c4nc3s2)cc1` as the compound, how does the AC50 [1] read?
Answer: 15.8 µM [falling, partial curve]

Question: For `Cc1cc2nc(-c3ccc(SCC(=O)N4CCN(C(=O)c5ccco5)CC4)nc3)[nH]c2cc1C`, which AC50 [1] is on record?
Answer: 10 µM [falling, partial curve]

Question: Which AC50 [1] does the source give for `CC(C)(C)OC(=O)N1CCC(c2c(C(=O)NCCN3CCc4ccccc4C3)cnn2-c2ccc(F)cc2F)CC1` here?
Answer: 39.8 µM [falling, single point]

Question: For `CCC1CCCCN1Cc1ccc(CNS(=O)(=O)c2ccc3c(c2)oc(=O)n3C)o1` (centres undefined), which AC50 [1] is on record?
Answer: 1.26 µM [falling, full curve]

Question: For `Cc1ccc(NC(=O)CCn2c(=O)c3cccn3c3ccccc32)cc1C`, which AC50 [1] is on record?
Answer: 25.1 µM [falling, single point]

Question: Which AC50 [1] does the source give for `CCC(=O)N1CCc2cc(Br)cc(S(=O)(=O)CCC(=O)NCCc3cccc(C)c3)c21` here?
Answer: 1.58 µM [rising, partial curve]

Question: With `CC(C)c1nnc(SCC(=O)NCc2ccco2)n1C` as the compound, how does the AC50 [1] read?
Answer: 20 µM [rising, single point] [measured here: IkB-luc green channel]

Question: For `Cc1ccccc1OCC(=O)Nc1ccc2nc(SCC(N)=O)sc2c1`, which AC50 [1] is on record?
Answer: 31.6 µM [falling, partial curve]

Question: Which AC50 [1] does the source give for `Cc1ccc(C2CC(C(F)(F)F)n3ncc(C(=O)NCc4ccco4)c3N2)cc1` (centres undefined) here?
Answer: 12.6 µM [falling, partial curve]

Question: Which AC50 [1] does the source give for `CCOC(=O)c1ccc(NC(=O)Nc2ccc(OC)c(OC)c2)cc1` here?
Answer: 12.6 µM [falling, partial curve]

Question: With `O=C(NCCOC(=O)c1ccc(S(=O)(=O)N2CCOCC2)cc1)c1cccnc1` as the compound, how does the AC50 [1] read?
Answer: 3.16 µM [rising, partial curve] [measured here: IkB-luc green channel]

Question: For `COc1ccccc1N1CCN(Cc2nnc(-c3ccccc3C)o2)CC1`, which AC50 [1] is on record?
Answer: 31.6 µM [falling, single point]

Question: Which AC50 [1] does the source give for `O=S(=O)(Nc1ccc(C(F)(F)F)cc1)c1ccc2c(c1)OCCO2` here?
Answer: 15.8 µM [falling, partial curve]

Question: With `O=C(Cn1ncn2c(cc3ccccc32)c1=O)NCc1ccco1` as the compound, how does the AC50 (measured here: IkB-luc green channel) read?
Answer: 31.6 µM [rising, single point]

Question: What about the AC50 (measured here: control luc red channel) of the same compound?
Answer: 31.6 µM [falling, single point]

Question: Which AC50 [1] does the source give for `O=C(NCCCc1nc2ccccc2n1Cc1cccc(Cl)c1)C1CCCCC1` here?
Answer: 15.8 µM [falling, partial curve]

Question: For `O=C(c1ccc2c(c1)N(Cc1ccc(Cl)cc1)C(=O)c1ccccc1S2=O)N1CCC(Cc2ccccc2)CC1` (centres undefined), which AC50 [1] is on record?
Answer: 3.98 µM [falling, partial curve]

Question: With `COc1ccc(NC(=O)Cn2nc(C(F)(F)F)c3c2CCCC3)cc1OC` as the compound, how does the AC50 [1] read?
Answer: 31.6 µM [falling, partial curve, poor fit]

Question: With `Cc1cccc(N2CCN(C(=O)c3ccc4c(Cl)c5c(nc4c3)CCCC5)CC2)c1C` as the compound, how does the AC50 [1] read?
Answer: 10 µM [falling, partial curve]

Question: For `COc1cc(NC(=O)c2nc3ccccc3n(C)c2=O)cc(OC)c1OC`, which AC50 [1] is on record?
Answer: 7.94 µM [falling, full curve]

Question: With `OC1C=CSc2nc3ccccc3n21` (centres undefined) as the compound, how does the AC50 [1] read?
Answer: 25.1 µM [rising, partial curve] [measured here: IkB-luc green channel]

Question: Which AC50 [1] does the source give for `Cc1ccc(CCNC(=O)CCS(=O)(=O)c2cc3c(cc2Cl)NC(=O)CO3)cc1` here?
Answer: 25.1 µM [falling, partial curve, poor fit]

Question: Which AC50 [1] does the source give for `O=C(OCc1cc(=O)n2nc(C3CC3)sc2n1)c1ccccc1Cl` here?
Answer: 15.8 µM [falling, partial curve]

Question: For `CC(=O)c1cccc(NC(=O)c2cc(C)nc3c2c(C)nn3-c2cccc(Cl)c2C)c1`, which AC50 [1] is on record?
Answer: 5.01 µM [falling, partial curve, poor fit]

Question: With `COC(=O)c1c(-c2ccc(Cl)cc2)noc1N1CCN(c2ccc(F)cc2)CC1` as the compound, how does the AC50 [1] read?
Answer: 5.01 µM [falling, full curve]

Question: For `Cc1ccc(-c2nc(-c3cc4cccc(OCc5ccccc5F)c4oc3=O)no2)cc1`, which AC50 [1] is on record?
Answer: 25.1 µM [falling, single point]

Question: For `N#C/C(=C(/O)CSc1nnc(Cc2cccs2)n1C1CCCCC1)c1nc2ccccc2[nH]1`, which AC50 [1] is on record?
Answer: 10 µM [falling, partial curve]

Question: With `Cc1ccc(NC(=O)Cn2c(=O)n(Cc3ccc(C(=O)NCc4ccc5c(c4)OCO5)cc3)c(=O)c3ccccc32)cc1` as the compound, how does the AC50 [1] read?
Answer: 0.00631 µM [falling, full curve, poor fit]
